# Experimental data as given in publication PMC6791687.
# Amino acid sequences for entries named in this document (tags omitted). A change or cut given only in a name is not applied to a line headed by its entry.
# UniProt P25071: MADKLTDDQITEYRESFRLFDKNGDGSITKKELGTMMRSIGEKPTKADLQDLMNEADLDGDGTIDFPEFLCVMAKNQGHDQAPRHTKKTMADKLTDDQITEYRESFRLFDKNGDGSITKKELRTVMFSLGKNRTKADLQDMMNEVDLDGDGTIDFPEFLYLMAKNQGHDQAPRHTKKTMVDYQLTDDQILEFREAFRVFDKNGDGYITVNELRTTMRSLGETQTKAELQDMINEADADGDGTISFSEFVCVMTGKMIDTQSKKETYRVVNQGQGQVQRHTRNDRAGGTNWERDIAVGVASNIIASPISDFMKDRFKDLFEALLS
# UniProt P45724: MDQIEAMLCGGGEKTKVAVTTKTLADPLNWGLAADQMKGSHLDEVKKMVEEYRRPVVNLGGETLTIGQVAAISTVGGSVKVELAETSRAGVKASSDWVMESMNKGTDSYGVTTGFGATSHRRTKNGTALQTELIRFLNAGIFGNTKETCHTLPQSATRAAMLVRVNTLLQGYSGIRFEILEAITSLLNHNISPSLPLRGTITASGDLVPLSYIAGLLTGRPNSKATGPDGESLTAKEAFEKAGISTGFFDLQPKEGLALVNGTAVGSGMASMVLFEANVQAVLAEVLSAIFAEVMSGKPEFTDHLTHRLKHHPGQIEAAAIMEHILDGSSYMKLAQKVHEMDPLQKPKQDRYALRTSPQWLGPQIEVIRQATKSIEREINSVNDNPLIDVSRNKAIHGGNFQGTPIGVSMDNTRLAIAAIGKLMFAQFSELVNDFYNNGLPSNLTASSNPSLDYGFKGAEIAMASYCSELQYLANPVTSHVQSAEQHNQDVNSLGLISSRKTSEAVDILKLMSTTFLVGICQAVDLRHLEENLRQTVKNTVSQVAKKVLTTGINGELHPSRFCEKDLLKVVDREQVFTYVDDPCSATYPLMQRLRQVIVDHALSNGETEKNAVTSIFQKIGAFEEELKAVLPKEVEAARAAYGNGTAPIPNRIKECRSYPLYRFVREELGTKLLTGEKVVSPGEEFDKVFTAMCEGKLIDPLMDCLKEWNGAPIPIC
# UniProt Q9ZPY8: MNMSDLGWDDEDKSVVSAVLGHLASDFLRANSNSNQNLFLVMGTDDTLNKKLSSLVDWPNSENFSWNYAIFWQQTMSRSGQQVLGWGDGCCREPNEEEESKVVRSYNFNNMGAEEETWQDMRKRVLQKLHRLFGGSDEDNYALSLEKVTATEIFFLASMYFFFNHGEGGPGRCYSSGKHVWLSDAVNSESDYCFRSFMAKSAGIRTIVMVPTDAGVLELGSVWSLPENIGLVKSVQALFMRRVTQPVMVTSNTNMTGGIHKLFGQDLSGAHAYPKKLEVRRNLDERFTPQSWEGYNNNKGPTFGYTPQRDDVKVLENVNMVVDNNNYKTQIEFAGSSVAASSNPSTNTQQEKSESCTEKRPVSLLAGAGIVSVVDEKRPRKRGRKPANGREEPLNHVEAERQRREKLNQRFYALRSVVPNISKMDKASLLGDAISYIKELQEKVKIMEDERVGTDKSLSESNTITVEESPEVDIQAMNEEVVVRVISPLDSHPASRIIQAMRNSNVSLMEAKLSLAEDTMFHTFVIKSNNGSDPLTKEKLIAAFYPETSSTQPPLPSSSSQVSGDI
# UniProt P22954: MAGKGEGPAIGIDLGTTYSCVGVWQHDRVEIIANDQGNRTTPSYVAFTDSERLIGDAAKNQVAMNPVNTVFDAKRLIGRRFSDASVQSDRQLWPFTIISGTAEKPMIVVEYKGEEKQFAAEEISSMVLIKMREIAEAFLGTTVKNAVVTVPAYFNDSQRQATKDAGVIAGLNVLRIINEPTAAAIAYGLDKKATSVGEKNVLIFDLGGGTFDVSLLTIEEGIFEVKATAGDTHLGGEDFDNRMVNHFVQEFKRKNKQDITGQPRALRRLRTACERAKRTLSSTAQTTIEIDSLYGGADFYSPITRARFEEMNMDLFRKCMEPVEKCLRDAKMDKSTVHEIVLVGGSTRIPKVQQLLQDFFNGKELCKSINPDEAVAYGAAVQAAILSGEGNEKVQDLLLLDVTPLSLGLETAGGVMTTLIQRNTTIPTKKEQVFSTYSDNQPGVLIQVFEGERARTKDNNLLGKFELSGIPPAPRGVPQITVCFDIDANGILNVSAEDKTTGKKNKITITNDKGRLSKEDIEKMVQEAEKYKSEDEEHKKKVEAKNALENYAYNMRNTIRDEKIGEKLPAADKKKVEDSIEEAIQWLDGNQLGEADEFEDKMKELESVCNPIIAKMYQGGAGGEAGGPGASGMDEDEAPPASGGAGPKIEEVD
# UniProt F4KB73: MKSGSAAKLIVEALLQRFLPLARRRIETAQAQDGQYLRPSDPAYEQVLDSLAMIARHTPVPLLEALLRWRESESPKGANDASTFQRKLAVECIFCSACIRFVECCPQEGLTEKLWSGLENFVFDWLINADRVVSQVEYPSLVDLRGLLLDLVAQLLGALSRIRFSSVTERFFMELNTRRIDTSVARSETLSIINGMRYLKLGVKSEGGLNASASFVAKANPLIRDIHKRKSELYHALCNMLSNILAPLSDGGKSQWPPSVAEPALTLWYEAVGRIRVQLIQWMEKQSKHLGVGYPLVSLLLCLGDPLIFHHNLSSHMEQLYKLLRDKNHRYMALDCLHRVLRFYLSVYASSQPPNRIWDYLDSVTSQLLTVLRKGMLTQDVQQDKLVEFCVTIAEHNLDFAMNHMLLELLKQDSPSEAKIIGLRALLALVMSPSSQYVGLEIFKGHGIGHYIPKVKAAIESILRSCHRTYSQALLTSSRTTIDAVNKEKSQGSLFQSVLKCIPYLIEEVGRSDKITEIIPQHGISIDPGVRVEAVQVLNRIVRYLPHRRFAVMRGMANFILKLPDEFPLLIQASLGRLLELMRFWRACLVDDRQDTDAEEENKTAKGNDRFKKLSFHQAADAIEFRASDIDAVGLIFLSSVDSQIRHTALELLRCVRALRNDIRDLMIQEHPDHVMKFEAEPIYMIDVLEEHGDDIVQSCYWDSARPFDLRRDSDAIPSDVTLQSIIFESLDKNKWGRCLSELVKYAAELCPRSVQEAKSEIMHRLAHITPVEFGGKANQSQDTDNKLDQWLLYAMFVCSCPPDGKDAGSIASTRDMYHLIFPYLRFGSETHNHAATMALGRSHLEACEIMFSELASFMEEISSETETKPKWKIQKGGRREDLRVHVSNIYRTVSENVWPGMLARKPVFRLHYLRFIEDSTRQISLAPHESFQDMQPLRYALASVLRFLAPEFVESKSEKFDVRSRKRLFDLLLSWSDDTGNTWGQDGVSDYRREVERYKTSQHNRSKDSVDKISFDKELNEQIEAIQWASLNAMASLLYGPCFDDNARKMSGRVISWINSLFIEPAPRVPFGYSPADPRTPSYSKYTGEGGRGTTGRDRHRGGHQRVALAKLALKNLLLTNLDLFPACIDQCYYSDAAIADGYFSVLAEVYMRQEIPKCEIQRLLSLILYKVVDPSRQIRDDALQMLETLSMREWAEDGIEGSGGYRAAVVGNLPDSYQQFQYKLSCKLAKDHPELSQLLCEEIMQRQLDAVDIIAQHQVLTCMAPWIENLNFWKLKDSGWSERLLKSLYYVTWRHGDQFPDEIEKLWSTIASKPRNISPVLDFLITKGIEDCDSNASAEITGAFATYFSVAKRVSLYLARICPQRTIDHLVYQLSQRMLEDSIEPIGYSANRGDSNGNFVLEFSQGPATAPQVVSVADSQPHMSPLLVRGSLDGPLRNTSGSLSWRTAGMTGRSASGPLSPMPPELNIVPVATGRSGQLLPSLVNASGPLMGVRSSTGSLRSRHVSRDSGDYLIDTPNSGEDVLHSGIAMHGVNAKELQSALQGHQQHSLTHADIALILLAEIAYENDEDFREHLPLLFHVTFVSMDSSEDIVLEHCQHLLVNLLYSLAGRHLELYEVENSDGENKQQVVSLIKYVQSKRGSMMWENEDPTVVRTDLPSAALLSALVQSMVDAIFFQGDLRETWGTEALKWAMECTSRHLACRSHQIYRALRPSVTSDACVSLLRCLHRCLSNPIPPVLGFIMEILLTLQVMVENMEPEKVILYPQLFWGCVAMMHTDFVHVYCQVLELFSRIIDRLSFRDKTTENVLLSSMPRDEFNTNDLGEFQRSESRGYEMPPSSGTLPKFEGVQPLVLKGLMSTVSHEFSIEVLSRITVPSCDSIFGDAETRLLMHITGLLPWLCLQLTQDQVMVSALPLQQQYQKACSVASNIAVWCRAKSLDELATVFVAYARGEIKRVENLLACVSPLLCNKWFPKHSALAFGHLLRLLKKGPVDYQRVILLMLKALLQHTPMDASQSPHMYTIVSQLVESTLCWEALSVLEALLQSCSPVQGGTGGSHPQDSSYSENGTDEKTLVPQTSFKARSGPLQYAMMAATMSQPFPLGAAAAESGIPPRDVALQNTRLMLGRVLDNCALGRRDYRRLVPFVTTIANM
# UniProt F4JSJ6: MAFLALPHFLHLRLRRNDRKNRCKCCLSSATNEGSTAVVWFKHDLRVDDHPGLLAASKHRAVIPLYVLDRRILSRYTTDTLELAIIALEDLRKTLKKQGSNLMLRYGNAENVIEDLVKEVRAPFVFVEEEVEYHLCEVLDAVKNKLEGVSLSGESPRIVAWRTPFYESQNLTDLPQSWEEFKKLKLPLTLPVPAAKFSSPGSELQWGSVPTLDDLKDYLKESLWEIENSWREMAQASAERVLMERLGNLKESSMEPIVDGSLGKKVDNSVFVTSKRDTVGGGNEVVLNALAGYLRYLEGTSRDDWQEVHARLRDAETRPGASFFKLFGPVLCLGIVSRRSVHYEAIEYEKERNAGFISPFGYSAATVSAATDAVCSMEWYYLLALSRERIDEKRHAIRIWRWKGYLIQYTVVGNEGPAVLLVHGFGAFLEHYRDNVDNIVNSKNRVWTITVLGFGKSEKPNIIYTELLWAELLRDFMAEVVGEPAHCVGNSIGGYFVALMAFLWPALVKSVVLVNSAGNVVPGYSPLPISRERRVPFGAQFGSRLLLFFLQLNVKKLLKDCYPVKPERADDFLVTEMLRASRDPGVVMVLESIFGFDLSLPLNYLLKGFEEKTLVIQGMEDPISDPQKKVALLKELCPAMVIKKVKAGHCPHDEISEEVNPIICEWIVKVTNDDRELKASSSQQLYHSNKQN
# UniProt O23487: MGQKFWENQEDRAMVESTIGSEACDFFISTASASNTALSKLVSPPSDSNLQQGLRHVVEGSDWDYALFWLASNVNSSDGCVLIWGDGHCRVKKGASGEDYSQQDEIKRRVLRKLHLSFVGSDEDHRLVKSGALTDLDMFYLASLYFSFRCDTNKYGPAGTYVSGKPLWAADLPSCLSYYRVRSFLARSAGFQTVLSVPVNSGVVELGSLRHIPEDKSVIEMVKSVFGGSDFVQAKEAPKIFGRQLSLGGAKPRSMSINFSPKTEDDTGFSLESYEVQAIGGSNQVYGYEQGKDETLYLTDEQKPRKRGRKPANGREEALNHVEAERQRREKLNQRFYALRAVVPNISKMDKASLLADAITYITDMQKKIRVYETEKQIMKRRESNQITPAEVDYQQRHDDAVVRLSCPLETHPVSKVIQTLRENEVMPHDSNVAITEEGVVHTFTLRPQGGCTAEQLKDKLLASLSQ
# UniProt Q8S307: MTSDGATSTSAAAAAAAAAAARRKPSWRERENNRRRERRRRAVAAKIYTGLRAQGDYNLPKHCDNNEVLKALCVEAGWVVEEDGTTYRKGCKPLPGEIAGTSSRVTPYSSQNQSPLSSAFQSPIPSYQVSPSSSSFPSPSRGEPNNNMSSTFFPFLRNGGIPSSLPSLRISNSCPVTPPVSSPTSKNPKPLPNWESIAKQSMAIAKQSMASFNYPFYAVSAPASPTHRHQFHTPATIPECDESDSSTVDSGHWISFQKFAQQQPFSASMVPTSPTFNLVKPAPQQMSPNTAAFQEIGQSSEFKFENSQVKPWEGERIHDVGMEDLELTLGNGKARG
# UniProt O65719: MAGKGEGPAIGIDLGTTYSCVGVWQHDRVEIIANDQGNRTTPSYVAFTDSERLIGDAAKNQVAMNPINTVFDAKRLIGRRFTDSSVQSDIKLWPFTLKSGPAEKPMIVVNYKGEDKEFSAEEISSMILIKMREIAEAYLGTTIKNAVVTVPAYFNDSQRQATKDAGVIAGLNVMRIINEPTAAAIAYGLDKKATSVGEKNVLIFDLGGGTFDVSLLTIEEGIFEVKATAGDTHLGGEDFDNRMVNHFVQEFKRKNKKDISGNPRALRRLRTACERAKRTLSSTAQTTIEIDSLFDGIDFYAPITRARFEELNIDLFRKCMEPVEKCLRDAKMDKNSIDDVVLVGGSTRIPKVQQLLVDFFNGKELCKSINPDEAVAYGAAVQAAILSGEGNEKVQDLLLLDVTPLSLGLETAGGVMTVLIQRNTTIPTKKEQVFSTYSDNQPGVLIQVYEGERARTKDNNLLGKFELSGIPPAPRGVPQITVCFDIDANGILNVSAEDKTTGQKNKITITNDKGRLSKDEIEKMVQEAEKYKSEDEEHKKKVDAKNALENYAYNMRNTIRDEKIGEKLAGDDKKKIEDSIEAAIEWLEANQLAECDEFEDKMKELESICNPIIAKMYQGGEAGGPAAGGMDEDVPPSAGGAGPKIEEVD
# Results are given in words; binding and its absence hold for the method and conditions named. Binding seen in cells or lysates may run through a third protein. A yes stands for co-enrichment or nearness to the bait. Other partners may have been found.
# T1: FAMA-TbID-Venus (FAMApro::FAMA-TbID-mVenus in fama-1) (Arabidopsis thaliana) (UniProt Q56YJ8)
# T1 sequence: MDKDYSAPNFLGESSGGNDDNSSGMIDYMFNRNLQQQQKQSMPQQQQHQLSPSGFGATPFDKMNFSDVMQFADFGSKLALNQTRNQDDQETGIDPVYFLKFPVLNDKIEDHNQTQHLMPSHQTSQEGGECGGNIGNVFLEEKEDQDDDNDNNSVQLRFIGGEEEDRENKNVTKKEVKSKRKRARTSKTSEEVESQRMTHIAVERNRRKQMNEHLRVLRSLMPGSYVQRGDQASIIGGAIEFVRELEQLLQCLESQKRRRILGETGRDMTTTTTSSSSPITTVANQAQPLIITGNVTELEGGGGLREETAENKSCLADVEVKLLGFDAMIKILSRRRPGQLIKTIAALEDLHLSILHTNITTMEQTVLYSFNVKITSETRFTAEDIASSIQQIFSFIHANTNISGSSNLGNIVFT
# B1: SOS2 (protein, UniProt Q9LDI3 1-446)
# chain: MTKKMRRVGKYEVGRTIGEGTFAKVKFARNTDTGDNVAIKIMAKSTILKNRMVDQIKREISIMKIVRHPNIVRLYEVLASPSKIYIVLEFVTGGELFDRIVHKGRLEESESRKYFQQLVDAVAHCHCKGVYHRDLKPENLLLDTNGNLKVSDFGLSALPQEGVELLRTTCGTPNYVAPEVLSGQGYDGSAADIWSCGVILFVILAGYLPFSETDLPGLYRKINAAEFSCPPWFSAEVKFLIHRILDPNPKTRIQIQGIKKDPWFRLNYVPIRAREEEEVNLDDIRAVFDGIEGSYVAENVERNDEGPLMMNAFEMITLSQGLNLSALFDRRQDFVKRQTRFVSRREPSEIIANIEAVANSMGFKSHTRNFKTRLEGLSSIKAGQLAVVIEIYEVAPSLFMVDVRKAAGETLEYHKFYKKLCSKLENIIWRATEGIPKSEILRTITF
# B2: AT5G56460 (putative protein kinase) (protein, UniProt Q9FM85 1-408)
# chain: MGNCWCRFEPLNHRVSANAKSESPKEQSPTVEDKHIKEVQKLPSNPKEVEDLRRDSAANPLIAFTYEELKNITSNFRQDRVLGGGGFGSVYKGFIKEDLGDQEVPEPLPVAVKVHDGDNSFQGHREWLAEVIFLGQLSHPNLVKLIGYCCEDNHRVLIYEYMARGSVENNLFSRVLLPLSWAIRMKIAFGAAKGLAFLHEAKKPVIYRDFKTSNILLDMDYNAKLSDFGLAKDGPVGDKSHVSTRIMGTYGYAAPEYIMTGHLTPGSDVYSFGVVLLELLTGRKSLDKSRPTREQNLIDWALPLLKEKKKVLNIVDPKMNCEYPVKAVQKAAMLAYHCLNRNPKARPLMRDIVDSLEPLQATEEEALLVPPVQKAVITIIDEMPKNGLKKVEELKKVEEVKKVIEDAC
# B3: HOP2 (protein, UniProt Q5XEP2 1-571)
# chain: MADEAKAKGNAAFSSGDFNSAVNHFTDAINLTPTNHVLFSNRSAAHASLNHYDEALSDAKKTVELKPDWGKGYSRLGAAHLGLNQFDEAVEAYSKGLEIDPSNEGLKSGLADAKASASRSRASAPNPFGDAFQGPEMWSKLTADPSTRGLLKQPDFVNMMKEIQRNPSNLNLYLQDQRVMQALGVLLNIQIRTQQAGDDMEIGEEEMAVPSRKEPEVEKKRKPEPEPEPEPEFGEEKQKKLKAQKEKELGNAAYKKKDFETAIQHYSTAMEIDDEDISYITNRAAVHLEMGKYDECIKDCDKAVERGRELRSDYKMVAKALTRKGTALGKMAKVSKDYEPVIQTYQKALTEHRNPETLKRLNEAERAKKELEQQEYYDPNIGDEEREKGNDFFKEQKYPDAVRHYTEAIKRNPKDPRAYSNRAACYTKLGAMPEGLKDAEKCIELDPTFLKGYSRKGAVQFFMKEYDNAMETYQKGLEHDPNNQELLDGVKRCVQQINKANRGDLTPEELKERQAKGMQDPEIQNILTDPVMRQVLSDLQENPAAAQKHMQNPMIMNKIQKLISSGIVQMK
# B4: P23-1 (protein, UniProt Q8L7U4 1-241)
# chain: MSRHPEVKWAETTEKIFLTVVLADTKDTKVNLDPEGVFDFSAKVGPENHVYELKLELADKVNVEESKINIGERSIFCIIEKAEPERWNKLLRVKKPPHYVKVDWDKWVDEDDEGSAGAADMDMAGMEGMGGMGGMGGMGGMGGMGGMGGMGGMEGMDFSKLMGGMGGMGGMGGLEGLGGMGGMGGMGGMGGMGGMEEFEDSDDEEETAKSGDKKDDAVKEEGLATEKAPAAEETTSVKEDK
# B5: J3 (protein, UniProt Q94AW8 1-420)
# chain: MFGRGPSKKSDNTKFYEILGVPKSASPEDLKKAYKKAAIKNHPDKGGDPEKFKELAQAYEVLSDPEKREIYDQYGEDALKEGMGGGGGGHDPFDIFSSFFGGGPFGGNTSRQRRQRRGEDVVHPLKVSLEDVYLGTMKKLSLSRNALCSKCNGKGSKSGASLKCGGCQGSGMKVSIRQLGPGMIQQMQHACNECKGTGETINDRDRCPQCKGDKVIPEKKVLEVNVEKGMQHSQKITFEGQADEAPDTVTGDIVFVLQQKEHPKFKRKGEDLFVEHTLSLTEALCGFQFVLTHLDGRSLLIKSNPGEVVKPDSYKAISDEGMPIYQRPFMKGKLYIHFTVEFPDSLSPDQTKALEAVLPKPSTAQLSDMEIDECEETTLHDVNIEDEMRRKAQAQREAYDDDDEDDDHPGGAQRVQCAQQ
# B6: LEUNIG (protein, UniProt Q9FUY2 1-931)
# chain: MSQTNWEADKMLDVYIHDYLVKRDLKATAQAFQAEGKVSSDPVAIDAPGGFLFEWWSVFWDIFIARTNEKHSEVAASYIETQMIKAREQQLQQSQHPQVSQQQQQQQQQQIQMQQLLLQRAQQQQQQQQQQHHHHQQQQQQQQQQQQQQQQQQQQHQNQPPSQQQQQQSTPQHQQQPTPQQQPQRRDGSHLANGSANGLVGNNSEPVMRQNPGSGSSLASKAYEERVKMPTQRESLDEAAMKRFGDNVGQLLDPSHASILKSAAASGQPAGQVLHSTSGGMSPQVQTRNQQLPGSAVDIKSEINPVLTPRTAVPEGSLIGIPGSNQGSNNLTLKGWPLTGFDQLRSGLLQQQKPFMQSQSFHQLNMLTPQHQQQLMLAQQNLNSQSVSEENRRLKMLLNNRSMTLGKDGLGSSVGDVLPNVGSSLQPGGSLLPRGDTDMLLKLKMALLQQQQQNQQQGGGNPPQPQPQPQPLNQLALTNPQPQSSNHSIHQQEKLGGGGSITMDGSISNSFRGNEQVLKNQSGRKRKQPVSSSGPANSSGTANTAGPSPSSAPSTPSTHTPGDVISMPNLPHSGGSSKSMMMFGTEGTGTLTSPSNQLADMDRFVEDGSLDDNVESFLSQEDGDQRDAVTRCMDVSKGFTFTEVNSVRASTTKVTCCHFSSDGKMLASAGHDKKAVLWYTDTMKPKTTLEEHTAMITDIRFSPSQLRLATSSFDKTVRVWDADNKGYSLRTFMGHSSMVTSLDFHPIKDDLICSCDNDNEIRYWSINNGSCTRVYKGGSTQIRFQPRVGKYLAASSANLVNVLDVETQAIRHSLQGHANPINSVCWDPSGDFLASVSEDMVKVWTLGTGSEGECVHELSCNGNKFQSCVFHPAYPSLLVIGCYQSLELWNMSENKTMTLPAHEGLITSLAVSTATGLVASASHDKLVKLWK
# Molecular target: T1, FAMA-TbID-Venus (FAMApro::FAMA-TbID-mVenus in fama-1) (Arabidopsis thaliana)
# Experiment: proximity labelling; FAMApro::FAMA-TbID-Venus in 5-day-old Arabidopsis seedlings, 50 uM biotin for 0, 0.5 or 3 h; biotinylated proteins purified on streptavidin beads, on-bead digest, LC-MS/MS with label-free quantification; filtered for enrichment against WT, nuclear TbID (FAMAnucTbID) and untreated samples; three biological replicates
row,binding,Molecule
1,binds,TCH3 (from UniProt P25071 1-324)
2,binds,AT5G53330 (undescribed protein) (from UniProt F4KJ40)
3,binds,IAP1
4,binds,PAL2 (from UniProt P45724 1-717)
5,binds,FKBP62 (from UniProt Q38931 1-551)
6,binds,AIB (from UniProt Q9ZPY8 1-566)
7,binds,TIC (from UniProt Q94KE2 1-1550)
8,binds,AT1G50570 (undescribed protein)
9,binds,NDH48 (from UniProt Q9S9N6 45-461)
10,binds,HSP70-1 (from UniProt P22953 1-651)
11,binds,HSP70-2 (from UniProt P22954 1-653)
12,binds,SEUSS (from UniProt Q8W234 1-877)
13,binds,AT5G15680 (undescribed protein) (from UniProt F4KB73)
14,binds,AT1G30070 (undescribed protein)
15,binds,AT4G25290 (undescribed protein) (from UniProt F4JSJ6)
16,binds,OXS2 (from UniProt P93755)
17,binds,HIP1 (from UniProt Q93YR3)
18,binds,PAT1
19,binds,JAM3 (from UniProt O23487)
20,binds,POLA3 (from UniProt F4JZZ1)
21,binds,BZR1 (from UniProt Q8S307 1-336)
22,binds,PDE327 (from UniProt F4JQE2)
23,binds,HSP70-3 (from UniProt O65719 1-649)
24,binds,B1
25,binds,B2
26,binds,B3
27,binds,B4
28,binds,B5
29,binds,B6
